# According to patent US20240174762A1, “METHODS, COMPOSITIONS AND USES FOR TARGETING SEMA7A IN THE DIAGNOSIS AND TREATMENT OF HEALTH CONDITIONS” (THE REGENTS OF THE UNIVERSITY OF COLORADO, A BODY CORPORATE, priority 2021, published 2024):
# At least one structure is not confirmed: it was looked up by name or label, or the drawing left a doubt.
# Tested on: human MCF7 model of ER+ breast cancer
# Experiment: ER+ SEMA7A expressing tumors, human MCF7 model
# Assay type: in vivo, mice
# From the text: FIGS. 11A-11H represents various graphs and images of tumor analysis and treatment according to various aspects of the disclosure. (A) represents analysis for relapse free survival of breast cancer patients treated with endocrine therapy assessed for SEMA7A levels; (B) MCF7 tumor cell growth in mice treated with endocrine therapy (e.g., Fulvestrant); (C) Lung metastasis of MCF7 in mice from 11B; (D) is a representative image illustrating BCL2 expression in SEMA7A OE cells; (E) MCF7 tumor growth in mice treated with endocrine therapy and a Bcl-2 inhibitor (e.g., Venetoclax) indicated by the arrows; (F) Lung metastasis in mice from […] above; (G) illustrates clonogenic growth of MCF7 EV or SEMA7A OE cells treated with 5 μM SU6656; clonogenic data are normalized to vehicle controls; and (H) represents clonogenic growth of MCF7 EV or SEMA7A OE cells treated with a composition according to various aspects of the disclosure.
# In another exemplary method, ER+SEMA7A expressing tumors are resistant to anti-estrogen-based therapy (Fulvestrant), anti-CDK4/6 therapy (Palbociclib), and chemotherapy but are sensitive to inhibition of cell survival pathways. […]
Structure (SMILES),response of ER+SEMA7A expressing tumors to therapy (FIG. 11),"metastasis in SEMA7A-expressing tumors (human MCF7 model, FIG. 11E-11F)"
CC(=O)c1c(C)c2cnc(Nc3ccc(N4CCNCC4)cn3)nc2n(C2CCCC2)c1=O [Palbociclib],resistant,–
CC1(C)CCC(CN2CCN(c3ccc(C(=O)NS(=O)(=O)c4ccc(NCC5CCOCC5)c([N+](=O)[O-])c4)c(Oc4cnc5[nH]ccc5c4)c3)CC2)=C(c2ccc(Cl)cc2)C1 [Venetoclax],–,reduces metastasis
